One assay concerns the target mRFP1_p53wt (human) (UniProt P04637). Description: co-IP; GFP-Trap and RFP-Trap on lysates of HEK-293T cells co-transfected with an eGFP-tagged and an mRFP1-tagged construct; with or without 4 µM Selinexor for 2 h before the precipitation; co-precipitated proteins detected by immunoblotting.
The target of the next assay is eGFP_NPMwt (human) (UniProt P06748). The description is as above.

Amino acid sequences for entries named in this document (tags omitted).
UniProt P06748: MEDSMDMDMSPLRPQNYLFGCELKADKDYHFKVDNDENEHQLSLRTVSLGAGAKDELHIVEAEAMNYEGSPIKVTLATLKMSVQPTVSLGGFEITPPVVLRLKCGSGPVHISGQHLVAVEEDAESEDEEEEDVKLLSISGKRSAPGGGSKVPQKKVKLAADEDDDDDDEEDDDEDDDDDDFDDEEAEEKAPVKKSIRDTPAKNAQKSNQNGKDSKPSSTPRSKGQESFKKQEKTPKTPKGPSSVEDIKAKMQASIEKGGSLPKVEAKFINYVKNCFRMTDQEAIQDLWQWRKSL

No constants are given. Whether binding was seen depends on the method and setting. Binding seen in cells or lysates may run through a third protein. Some entries that bind do so weakly or less than the wild type.

B1: fibrillarin (endogenous, HEK-293T) (protein, UniProt P22087 1-321)
chain: MKPGFSPRGGGFGGRGGFGDRGGRGGRGGFGGGRGRGGGFRGRGRGGGGGGGGGGGGGRGGGGFHSGGNRGRGRGGKRGNQSGKNVMVEPHRHEGVFICRGKEDALVTKNLVPGESVYGEKRVSISEGDDKIEYRAWNPFRSKLAAAILGGVDQIHIKPGAKVLYLGAASGTTVSHVSDIVGPDGLVYAVEFSHRSGRDLINLAKKRTNIIPVIEDARHPHKYRMLIAMVDVIFADVAQPDQTRIVALNAHTFLRNGGHFVISIKANCIDSTASAEAVFASEVKKMQQENMKPQEQLTLEPYERDHAVVVGVYRPPPKVKN
As to B1, the binding entry in the assay with mRFP1_p53wt (human) and with eGFP_NPMwt (human) was “binds” throughout.
